PubChem BioAssay AID1508588, Peter MacCallum Cancer Centre | 2020
The whole screen tested about 18,000 reagents; this is a part drawn at random. 790 of them (4.4%) count as active. 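Calls rest on a combination of fold-change classes in drug and vehicle arms, not all shown here.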

Test: 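Genome-wide search for knock-downs that heighten vemurafenib action in melanoma cells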 (primary screen)
Cell system: human WM266.4 melanoma cells (BRAF V600 mutant)
Knock-down reagent: siRNA pool against human genes, 40 nM
Time to read-out: 96 h from transfection to read-out
Conditions: vemurafenib 300 nM (about IC25), added 48 h after transfection, for 48 h; comparison arm got DMSO vehicle only
Measurement: 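Ratios to non-targeting siRNA for cell gain, counted as DAPI nuclei after minus before drug and averaged over two replicates, and for absorbance-read medium lactate per cell; both binned into fold-change classes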
Scale: cell gain with vemurafenib: higher = more cell gain than with non-targeting siRNA; lactate per cell with vemurafenib: higher = more lactate made per cell
Active means: 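a knock-down counts as enhancing when its fold-change classes with vehicle and with vemurafenib, taken together, show a stronger drug effect on cell gain or lactate per cell; exact class pairs not stated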
Calls: active = enhances vemurafenib effect; inactive = no enhancement seen

PSMB4 (proteasome 20S subunit beta 4) gave cell gain with vemurafenib 0.19; lactate per cell with vemurafenib 2.32; inactive.
Knock-down of GALNT17 (polypeptide N-acetylgalactosaminyltransferase 17) gave: cell gain with vemurafenib 0.77; lactate per cell with vemurafenib 0.66; inactive.
Silencing of RBMX (RNA binding motif protein X-linked) resulted in: cell gain with vemurafenib 0.56; lactate per cell with vemurafenib 0.78; inactive.
Depletion of ADIPOR2 (adiponectin receptor 2) gave: cell gain with vemurafenib 0.56; lactate per cell with vemurafenib 1.31; inactive.
Knock-down of CCDC33 (coiled-coil domain containing 33) gave: cell gain with vemurafenib 0.42; lactate per cell with vemurafenib 1.47; inactive.
Against FXR1 (FMR1 autosomal homolog 1) the deposit lists cell gain with vemurafenib 0.65; lactate per cell with vemurafenib 0.92; inactive.
With knock-down of SAC3D1 (SAC3 domain containing 1), the screen gave cell gain with vemurafenib 0.97; lactate per cell with vemurafenib 0.96; inactive.
POTEB3 (POTE ankyrin domain family member B3) scored cell gain with vemurafenib 0.77; lactate per cell with vemurafenib 1.02; inactive.
HLA-DRB1 (major histocompatibility complex, class II, DR beta 1) scored cell gain with vemurafenib 1.04; lactate per cell with vemurafenib 1.84; inactive.
Silencing of CRHR2 (corticotropin releasing hormone receptor 2) came out at: cell gain with vemurafenib 1.07; lactate per cell with vemurafenib 0.62; inactive.
With knock-down of MMAB (metabolism of cobalamin associated B) the results were cell gain with vemurafenib 0.62; lactate per cell with vemurafenib 0.56; inactive.
With knock-down of P3H1 (prolyl 3-hydroxylase 1), the record shows cell gain with vemurafenib 0.78; lactate per cell with vemurafenib 0.38; inactive.
With knock-down of MARS1 (methionyl-tRNA synthetase 1), the record shows cell gain with vemurafenib 0.22; lactate per cell with vemurafenib 2.28; inactive.
Knock-down of ERICH6 (glutamate rich 6) gave: cell gain with vemurafenib 0.29; lactate per cell with vemurafenib 0.3; inactive.
After knock-down of ABLIM2 (actin binding LIM protein family member 2) the results were cell gain with vemurafenib 0.17; lactate per cell with vemurafenib 2.45; inactive.
Knock-down of PIGH (phosphatidylinositol glycan anchor biosynthesis class H) came out at: cell gain with vemurafenib 0.68; lactate per cell with vemurafenib 0.64; inactive.
